Results from article PMC3787081, “The Heteromultimeric Debranching Enzyme Involved in Starch Synthesis in Arabidopsis Requires Both Isoamylase1 and Isoamylase2 Subunits for Complex Stability and Activity” (PLoS ONE, 2013).
No constants are given. Whether binding was seen depends on the method and setting. In cells and extracts the contact can be indirect. These calls come from enrichment with a bait or labelling near it, and not all partners need be listed. A no says only that the protein was not detected with the bait. Sequences can lack the tags named with a protein.

Target: T1, ISA2-TAP (ISA2 with a C-terminal tandem affinity purification tag) (Arabidopsis) (UniProt Q8L735)
T1 sequence: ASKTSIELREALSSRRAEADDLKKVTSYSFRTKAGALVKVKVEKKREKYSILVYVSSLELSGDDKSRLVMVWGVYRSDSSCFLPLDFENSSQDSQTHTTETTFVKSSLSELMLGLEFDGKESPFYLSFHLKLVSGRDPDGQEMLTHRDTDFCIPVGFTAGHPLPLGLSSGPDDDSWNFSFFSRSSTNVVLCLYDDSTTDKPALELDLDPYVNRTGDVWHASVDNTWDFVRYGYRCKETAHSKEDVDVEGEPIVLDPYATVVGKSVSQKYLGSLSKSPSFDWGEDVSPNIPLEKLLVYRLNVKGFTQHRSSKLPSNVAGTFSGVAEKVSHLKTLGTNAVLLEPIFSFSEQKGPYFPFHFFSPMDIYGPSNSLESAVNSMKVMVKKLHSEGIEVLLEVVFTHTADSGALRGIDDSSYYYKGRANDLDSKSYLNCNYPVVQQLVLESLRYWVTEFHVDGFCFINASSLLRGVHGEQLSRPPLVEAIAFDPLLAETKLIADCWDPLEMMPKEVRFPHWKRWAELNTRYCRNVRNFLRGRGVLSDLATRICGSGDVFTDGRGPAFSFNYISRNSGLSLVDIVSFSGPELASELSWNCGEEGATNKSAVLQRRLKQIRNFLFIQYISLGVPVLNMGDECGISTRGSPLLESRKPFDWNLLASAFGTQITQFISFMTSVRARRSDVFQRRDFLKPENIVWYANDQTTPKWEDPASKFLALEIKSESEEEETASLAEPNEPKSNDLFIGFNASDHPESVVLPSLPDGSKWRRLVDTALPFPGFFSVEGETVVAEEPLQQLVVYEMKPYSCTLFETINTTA
Assay: affinity purification with mass spectrometry; tandem affinity purification of ISA2-TAP from leaf extracts (IgG-Sepharose, TEV elution, Calmodulin Sepharose with 2 mM CaCl2, EGTA elution); SDS-PAGE, silver stain, in-gel tryptic digestion, LC-MS/MS; wild-type extracts as control

B1: Rubisco activase (protein, UniProt P10896 59-474)
chain: AVKEDKQTDGDRWRGLAYDTSDDQQDITRGKGMVDSVFQAPMGTGTHHAVLSSYEYVSQGLRQYNLDNMMDGFYIAPAFMDKLVVHITKNFLTLPNIKVPLILGIWGGKGQGKSFQCELVMAKMGINPIMMSAGELESGNAGEPAKLIRQRYREAADLIKKGKMCCLFINDLDAGAGRMGGTTQYTVNNQMVNATLMNIADNPTNVQLPGMYNKEENARVPIICTGNDFSTLYAPLIRDGRMEKFYWAPTREDRIGVCKGIFRTDKIKDEDIVTLVDQFPGQSIDFFGALRARVYDDEVRKFVESLGVEKIGKRLVNSREGPPVFEQPEMTYEKLMEYGNMLVMEQENVKRVQLAETYLSQAALGDANADAIGRGTFYGKGAQQVNLPVPEGCTDPVAENFDPTARSDDGTCVYNF
- binding: no binding
